# Experimental data as given in PubChem BioAssay AID180 (DTP/NCI, 2004).
# The list is a part of this screen's results and no random one: it gathers some chemical classes. Not every dose and run of a compound is shown. T/C is the treated group as % of the vehicle group. Some T/C values are marked as having no survivor count here; that says nothing about deaths at the dose. Schedule codes are those of the source, taken here to give the interval after Q, in days (D) or hours (H), and the number of doses after X. Some entries were tested several times; their values stand side by side, smallest first.
# Tested on: BDF1 mice, Adenocarcinoma 755 s.c., tumor weight T/C
# Assay: NCI In Vivo Anticancer Drug Screen. Data for tumor model Adenocarcinoma 755 (subcutaneous) in B6D2F1 (BDF1) mice
# Conditions: T/C endpoint: mean tumor weight, schedule: Q01DX011 (ip), vehicle: saline, evaluation day not shown, higher T/C = larger tumour
# Procedure: The antitumor activity of compounds was measured in mice bearing transplantable tumors. Survival or tumor size were measured and the results are expressed as the measurement made in the treated group (T) divided by the measurement made in the vehicle treated control group (C). The tumor model used in this assay is Adenocarcinoma 755 (subcutaneous) in B6D2F1 (BDF1) mice
structure (smiles),measurement,setting,value
ClCCNCCCCNCCCl,T/C,dose: 0.87 mg/kg/injection,136 % of control [survivor count not shown]
same,T/C,dose: 1.75 mg/kg/injection,117 % of control [survivor count not shown]
same,T/C,dose: 3.5 mg/kg/injection,54 % of control [survivor count not shown]
same,T/C,dose: 7.0 mg/kg/injection,"39 [survivor count not shown], 42 [survivor count not shown], 66 % of control [survivor count not shown]"
same,T/C,dose: 14.0 mg/kg/injection,36 [survivor count not shown] and 78 % of control [survivor count not shown]
same,T/C,dose: 28.0 mg/kg/injection,14 [survivor count not shown] and 36 % of control [survivor count not shown]
same,T/C,dose: 56.0 mg/kg/injection,8 % of control [survivor count not shown]
